Laboratory results published in patent US20200255478A1, “NOVEL COMPOUNDS ACTIVATING THE NRF2 PATHWAY” (Almirall, S.A., priority 2017, published 2020).
Results are given in words; binding and its absence hold for the method and conditions named. Some results given as binding are weak or reduced against the parent protein; the word gives no strength.

By UniProt entry, the sequences of proteins in these tests, tags left out. Residues count along the entry.
UniProt Q14145, residues 321-609: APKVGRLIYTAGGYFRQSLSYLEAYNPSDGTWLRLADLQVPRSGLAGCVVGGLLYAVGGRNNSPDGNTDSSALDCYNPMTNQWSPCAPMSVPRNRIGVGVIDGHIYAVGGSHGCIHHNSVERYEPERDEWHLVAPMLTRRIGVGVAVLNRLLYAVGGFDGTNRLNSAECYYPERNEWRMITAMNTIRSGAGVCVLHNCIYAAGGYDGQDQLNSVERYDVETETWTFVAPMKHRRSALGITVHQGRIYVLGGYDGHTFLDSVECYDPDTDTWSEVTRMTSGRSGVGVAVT

Target: Keap1-Maltose Binding Protein (MBP tag) (UniProt Q14145)
Test: TR-FRET competition

B1: H-Leu-Gln-Trp(indol-2-yl-&1)-Asp-Glu-Glu-Thr-Gly-Glu-Cys(&1)-Leu-Pro-OH (peptide)
peptide: LQWDEETGECLP
modifications: Trp indole C2-S-Cys cross-bridge
  binding: binds

B2: {[H-Leu-Gln-Cys(&1)-Asp-Glu-Glu-Thr-Gly-Glu-Cys(&2)-Leu-Pro-OH][&1(1,4-phenylenediyl)dimethylene&2]} (peptide)
peptide: LQCDEETGECLP
modifications: Cys-S-CH2-(1,4-phenylene)-CH2-S-Cys bridge
  binding: binds

B3: {[H-Leu-Gln-Cys(&1)-Asp-Glu-Glu-Thr-Gly-Glu-Cys(&2)-Leu-Pro-OH][&1(1,3-phenylenediyl)dimethylene&2]} (peptide)
peptide: LQCDEETGECLP
modifications: Cys-S-CH2-(1,3-phenylene)-CH2-S-Cys bridge
  binding: binds

B4: {[&1Leu-Gln-Cys(&2)-Asp-Glu-Glu-Thr-Gly-Glu-Cys(&3)-Leu-Pro&1][&2(1,3-phenylenediyl)dimethylene&3]} (peptide)
peptide: LQCDEETGECLP
modifications: head-to-tail amide Pro-Leu; Cys-S-CH2-(1,3-phenylene)-CH2-S-Cys bridge
  binding: binds

B5: {[&1Leu-Gln-Cys(&2)-Asp-Glu-Glu-Thr-Gly-Glu-Cys(&3)-Leu-Pro&1][&2(1,4-phenylenediyl)dimethylene&3]} (peptide)
peptide: LQCDEETGECLP
modifications: head-to-tail amide Pro-Leu; Cys-S-CH2-(1,4-phenylene)-CH2-S-Cys bridge
  binding: binds

B6: Acetyl-Trp(indol-2-yl-&1)-Asp-Glu-Glu-Thr-Gly-Glu-Cys(&1)-NH2 (peptide)
peptide: WDEETGEC
modifications: N-terminal acetyl; C-terminal amide; Trp indole C2-S-Cys cross-bridge
  binding: binds

B7: Acetyl-Phe(p-&1)-Asp-Glu-Glu-Thr-Gly-Glu-Cys(&1)-NH2 (peptide)
peptide: FDEETGEC
modifications: N-terminal acetyl; C-terminal amide; Phe para-C-S-Cys cross-bridge
  binding: binds

B8: &1Leu-Gln-Trp(indol-2-yl-&2)-Asp-Glu-Glu-Thr-Gly-Glu-Cys(&2)-Leu-Pro&1 (peptide)
peptide: LQWDEETGECLP
modifications: head-to-tail amide Pro-Leu; Trp indole C2-S-Cys cross-bridge
  binding: binds

B9: {[H-Leu-Gln-Cys(&1)-Asp-Ala-Glu-Thr-Gly-Glu-Cys(&2)-Leu-Pro-OH][&1(1,3-phenylenediyl)dimethylene&2]} (peptide)
peptide: LQCDAETGECLP
modifications: Cys-S-CH2-(1,3-phenylene)-CH2-S-Cys bridge
  binding: binds

B10: {[&1Leu-Gln-Cys(&2)-Asp-Ala-Glu-Thr-Gly-Glu-Cys(&3)-Leu-Pro&1][&2(1,3-phenylenediyl)dimethylene&3]} (peptide)
peptide: LQCDAETGECLP
modifications: head-to-tail amide Pro-Leu; Cys-S-CH2-(1,3-phenylene)-CH2-S-Cys bridge
  binding: binds

B11: {[H-Leu-Gln-Cys(&1)-Asp-Ala-Glu-Thr-Gly-Glu-Cys(&2)-Leu-Pro-OH][&1(1,2-phenylenediyl)dimethylene&2]} (peptide)
peptide: LQCDAETGECLP
modifications: Cys-S-CH2-(1,2-phenylene)-CH2-S-Cys bridge
  binding: binds

B12: {[Acetyl-Cys(&1)-Asp-Ala-Glu-Thr-Gly-Glu-Cys(&2)-NH2][&1(1,2-phenylenediyl)dimethylene&2]} (peptide)
peptide: CDAETGEC
modifications: N-terminal acetyl; C-terminal amide; Cys-S-CH2-(1,2-phenylene)-CH2-S-Cys bridge
  binding: binds

B13: Acetyl-Phe(m-&1)-Asp-Glu-Glu-Thr-Gly-Glu-Cys(&1)-NH2 (peptide)
peptide: FDEETGEC
modifications: N-terminal acetyl; C-terminal amide; Phe meta-C-S-Cys cross-bridge
  binding: binds

B14: Acetyl-Phe(o-&1)-Asp-Glu-Glu-Thr-Gly-Glu-Cys(&1)-NH2 (peptide)
peptide: FDEETGEC
modifications: N-terminal acetyl; C-terminal amide; Phe ortho-C-S-Cys cross-bridge
  binding: binds
